For 6 molecules, binding results are on record in publication doi:10.1101/566430.

Sequences of proteins named here, by UniProt entry; tags and fusion partners are left off. A change or cut given only in a name is not applied to a line headed by its entry.
UniProt P31749, whole entry: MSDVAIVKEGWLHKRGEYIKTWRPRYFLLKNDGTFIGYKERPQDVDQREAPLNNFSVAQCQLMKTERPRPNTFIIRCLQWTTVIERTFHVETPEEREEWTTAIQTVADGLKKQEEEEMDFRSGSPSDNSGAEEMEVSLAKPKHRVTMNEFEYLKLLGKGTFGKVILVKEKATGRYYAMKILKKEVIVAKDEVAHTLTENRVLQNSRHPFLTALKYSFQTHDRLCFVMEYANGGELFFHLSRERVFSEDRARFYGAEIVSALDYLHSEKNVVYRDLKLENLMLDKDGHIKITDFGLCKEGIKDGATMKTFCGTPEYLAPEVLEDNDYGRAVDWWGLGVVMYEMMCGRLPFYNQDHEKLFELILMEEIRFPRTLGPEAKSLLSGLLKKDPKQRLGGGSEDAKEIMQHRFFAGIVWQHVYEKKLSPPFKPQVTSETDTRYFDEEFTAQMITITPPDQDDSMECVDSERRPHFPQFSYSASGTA

Like-named read-outs stand apart in the source and are kept apart here. No constants are given. Whether binding was seen depends on the method and setting. Binding seen in cells or lysates may run through a third protein. Some results given as binding are weak or reduced against the parent protein; the word gives no strength. Tags and fused reporters may be left off the sequences shown.

Common to all, as to assay: FRET or BRET
In experiment [1] the target is T1, 3'-Phosphoinositide-dependent kinase-1, wild type, full length (eGFP-myc-PDK1 and HA-PDK1-mCherry) (human), O15530.
T1 chain: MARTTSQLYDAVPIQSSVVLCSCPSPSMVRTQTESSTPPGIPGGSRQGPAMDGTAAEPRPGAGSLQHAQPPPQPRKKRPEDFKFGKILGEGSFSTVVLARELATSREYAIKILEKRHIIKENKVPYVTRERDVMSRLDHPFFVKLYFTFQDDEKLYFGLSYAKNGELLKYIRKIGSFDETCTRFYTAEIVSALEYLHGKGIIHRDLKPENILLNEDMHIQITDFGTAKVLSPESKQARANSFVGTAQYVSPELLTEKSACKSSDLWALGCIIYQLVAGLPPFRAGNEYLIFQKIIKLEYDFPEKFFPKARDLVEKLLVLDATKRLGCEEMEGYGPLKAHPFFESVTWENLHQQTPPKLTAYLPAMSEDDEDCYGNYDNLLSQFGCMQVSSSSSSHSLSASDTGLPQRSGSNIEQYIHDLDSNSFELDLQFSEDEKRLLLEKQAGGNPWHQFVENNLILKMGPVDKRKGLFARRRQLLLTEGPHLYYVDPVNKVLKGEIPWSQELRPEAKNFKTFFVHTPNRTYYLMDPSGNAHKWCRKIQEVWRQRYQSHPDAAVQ
Particulars: remark: other sources report otherwise.

Experiment [2] concerns the target T1, 3'-Phosphoinositide-dependent kinase-1, …. As to conditions: remark: other sources report otherwise.
Experiment [3] deals with mCherry-HA-PKB (Akt/PKB), P31749. Particulars: remark: other sources report otherwise.
The target in experiment [4] is PDK1 R466A/K467A, full length (eGFP-myc-PDK1 and HA-PDK1-mCherry, both R466A/K467A) (human) (UniProt O15530).
Experiment [5] shares this target. This is another data set of the same source.
In experiment [6] the target is PDK1 T513E, full length (GFP- and mCherry-tagged) (human) (UniProt O15530).
For the next experiment, the target named is mCherry-HA-PKB (Akt/PKB) (UniProt P31749).
Experiment [7] addresses PDK1 T513E, full length (GFP- and mCherry-tagged) (human) (UniProt O15530). This is another data set of the same source.
Experiment [8] has as its target PDK1 K465A, full length (eGFP-myc-PDK1 K465A and HA-PDK1-mCherry K465A) (human) (UniProt O15530).
The target is the same in experiment [9]. This is another data set of the same source.
Experiment [10] deals with Isolated PH domain of PDK1, T513E (GFP- and mRFP-tagged) (human) (UniProt O15530).
Experiment [11] has as its target Isolated PH domain of PDK1, wild type (eGFP-myc-PH^PDK1 and mRFP-myc-PH^PDK1) (human) (UniProt O15530).

B1: 3'-Phosphoinositide-dependent kinase-1, wild type, full length (eGFP-myc-PDK1 and HA-PDK1-mCherry), O15530 1-556 (enzyme)
chain: MARTTSQLYDAVPIQSSVVLCSCPSPSMVRTQTESSTPPGIPGGSRQGPAMDGTAAEPRPGAGSLQHAQPPPQPRKKRPEDFKFGKILGEGSFSTVVLARELATSREYAIKILEKRHIIKENKVPYVTRERDVMSRLDHPFFVKLYFTFQDDEKLYFGLSYAKNGELLKYIRKIGSFDETCTRFYTAEIVSALEYLHGKGIIHRDLKPENILLNEDMHIQITDFGTAKVLSPESKQARANSFVGTAQYVSPELLTEKSACKSSDLWALGCIIYQLVAGLPPFRAGNEYLIFQKIIKLEYDFPEKFFPKARDLVEKLLVLDATKRLGCEEMEGYGPLKAHPFFESVTWENLHQQTPPKLTAYLPAMSEDDEDCYGNYDNLLSQFGCMQVSSSSSSHSLSASDTGLPQRSGSNIEQYIHDLDSNSFELDLQFSEDEKRLLLEKQAGGNPWHQFVENNLILKMGPVDKRKGLFARRRQLLLTEGPHLYYVDPVNKVLKGEIPWSQELRPEAKNFKTFFVHTPNRTYYLMDPSGNAHKWCRKIQEVWRQRYQSHPDAAVQ
Regarding B1, the binding result in experiment [1], in [2] and in [3] was “binds” throughout.

B2: PDK1 R466A/K467A, full length (eGFP-myc-PDK1 and HA-PDK1-mCherry, both R466A/K467A) (enzyme, UniProt O15530 1-556)
chain: MARTTSQLYDAVPIQSSVVLCSCPSPSMVRTQTESSTPPGIPGGSRQGPAMDGTAAEPRPGAGSLQHAQPPPQPRKKRPEDFKFGKILGEGSFSTVVLARELATSREYAIKILEKRHIIKENKVPYVTRERDVMSRLDHPFFVKLYFTFQDDEKLYFGLSYAKNGELLKYIRKIGSFDETCTRFYTAEIVSALEYLHGKGIIHRDLKPENILLNEDMHIQITDFGTAKVLSPESKQARANSFVGTAQYVSPELLTEKSACKSSDLWALGCIIYQLVAGLPPFRAGNEYLIFQKIIKLEYDFPEKFFPKARDLVEKLLVLDATKRLGCEEMEGYGPLKAHPFFESVTWENLHQQTPPKLTAYLPAMSEDDEDCYGNYDNLLSQFGCMQVSSSSSSHSLSASDTGLPQRSGSNIEQYIHDLDSNSFELDLQFSEDEKRLLLEKQAGGNPWHQFVENNLILKMGPVDKAAGLFARRRQLLLTEGPHLYYVDPVNKVLKGEIPWSQELRPEAKNFKTFFVHTPNRTYYLMDPSGNAHKWCRKIQEVWRQRYQSHPDAAVQ
On to B2, for which the binding entry in experiment [4] and in experiment [5] was “binds” in each case.

B3: PDK1 T513E, full length (GFP- and mCherry-tagged) (enzyme, UniProt O15530 1-556)
chain: MARTTSQLYDAVPIQSSVVLCSCPSPSMVRTQTESSTPPGIPGGSRQGPAMDGTAAEPRPGAGSLQHAQPPPQPRKKRPEDFKFGKILGEGSFSTVVLARELATSREYAIKILEKRHIIKENKVPYVTRERDVMSRLDHPFFVKLYFTFQDDEKLYFGLSYAKNGELLKYIRKIGSFDETCTRFYTAEIVSALEYLHGKGIIHRDLKPENILLNEDMHIQITDFGTAKVLSPESKQARANSFVGTAQYVSPELLTEKSACKSSDLWALGCIIYQLVAGLPPFRAGNEYLIFQKIIKLEYDFPEKFFPKARDLVEKLLVLDATKRLGCEEMEGYGPLKAHPFFESVTWENLHQQTPPKLTAYLPAMSEDDEDCYGNYDNLLSQFGCMQVSSSSSSHSLSASDTGLPQRSGSNIEQYIHDLDSNSFELDLQFSEDEKRLLLEKQAGGNPWHQFVENNLILKMGPVDKRKGLFARRRQLLLTEGPHLYYVDPVNKVLKGEIPWSQELRPEAKNFKEFFVHTPNRTYYLMDPSGNAHKWCRKIQEVWRQRYQSHPDAAVQ
Regarding B3, the binding entry (in [6]; with mCherry-HA-PKB (Akt/PKB); in experiment [7]) was “binds” throughout.

B4: PDK1 K465A, full length (eGFP-myc-PDK1 K465A and HA-PDK1-mCherry K465A) (enzyme, UniProt O15530 1-556)
chain: MARTTSQLYDAVPIQSSVVLCSCPSPSMVRTQTESSTPPGIPGGSRQGPAMDGTAAEPRPGAGSLQHAQPPPQPRKKRPEDFKFGKILGEGSFSTVVLARELATSREYAIKILEKRHIIKENKVPYVTRERDVMSRLDHPFFVKLYFTFQDDEKLYFGLSYAKNGELLKYIRKIGSFDETCTRFYTAEIVSALEYLHGKGIIHRDLKPENILLNEDMHIQITDFGTAKVLSPESKQARANSFVGTAQYVSPELLTEKSACKSSDLWALGCIIYQLVAGLPPFRAGNEYLIFQKIIKLEYDFPEKFFPKARDLVEKLLVLDATKRLGCEEMEGYGPLKAHPFFESVTWENLHQQTPPKLTAYLPAMSEDDEDCYGNYDNLLSQFGCMQVSSSSSSHSLSASDTGLPQRSGSNIEQYIHDLDSNSFELDLQFSEDEKRLLLEKQAGGNPWHQFVENNLILKMGPVDARKGLFARRRQLLLTEGPHLYYVDPVNKVLKGEIPWSQELRPEAKNFKTFFVHTPNRTYYLMDPSGNAHKWCRKIQEVWRQRYQSHPDAAVQ
Turning to B4, the binding entry in experiment [8] is recorded as “binds”; in [9], “binds weakly”.

B5: Isolated PH domain of PDK1, T513E (GFP- and mRFP-tagged) (domain or fragment, UniProt O15530 404-556)
chain: LPQRSGSNIEQYIHDLDSNSFELDLQFSEDEKRLLLEKQAGGNPWHQFVENNLILKMGPVDKRKGLFARRRQLLLTEGPHLYYVDPVNKVLKGEIPWSQELRPEAKNFKEFFVHTPNRTYYLMDPSGNAHKWCRKIQEVWRQRYQSHPDAAVQ
As to B5, in [10], the binding entry is “binds”.

B6: Isolated PH domain of PDK1, wild type (eGFP-myc-PH^PDK1 and mRFP-myc-PH^PDK1) (domain or fragment, UniProt O15530 404-556)
chain: LPQRSGSNIEQYIHDLDSNSFELDLQFSEDEKRLLLEKQAGGNPWHQFVENNLILKMGPVDKRKGLFARRRQLLLTEGPHLYYVDPVNKVLKGEIPWSQELRPEAKNFKTFFVHTPNRTYYLMDPSGNAHKWCRKIQEVWRQRYQSHPDAAVQ
In the case of B6, the binding entry in [11] was “binds”.
